Assay results from publication PMC4513130, “Neuronal Calcium Sensor-1 Binds the D2 Dopamine Receptor and G-protein-coupled Receptor Kinase 1 (GRK1) Peptides Using Different Modes of Interactions” (The Journal of Biological Chemistry, 2015).

System: NCS-1ΔCT
Assay: Crystal structure of NCS-1ΔCT dimer
Parameters: species or system rat
Conditions: PDB 4YRU

NCS-1ΔCT: C-terminal truncated mutant of NCS-1, residues Ser-178–Val-190 deleted
area buried by protein-protein interface of homodimer: about 1854 Å
oligomeric state in crystal: symmetrical homodimer
